The values below come from the supplement of paper PMC12819154, “High-throughput peptide-centric local stability assay extends protein–ligand identification to membrane proteins, tissues and bacteria” (Nature Structural & Molecular Biology, 2025).

By UniProt entry, the sequences of proteins in these tests, tags left out. Where a name states a change or a piece, a line headed by the entry shows the natural chain unless it says otherwise.
UniProt P28074: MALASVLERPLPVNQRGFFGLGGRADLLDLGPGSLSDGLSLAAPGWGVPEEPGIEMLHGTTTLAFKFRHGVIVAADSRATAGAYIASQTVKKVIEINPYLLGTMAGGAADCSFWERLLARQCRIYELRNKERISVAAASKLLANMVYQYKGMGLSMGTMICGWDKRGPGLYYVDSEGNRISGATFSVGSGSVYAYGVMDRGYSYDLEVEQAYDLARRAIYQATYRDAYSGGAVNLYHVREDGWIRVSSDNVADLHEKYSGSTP
UniProt P17098: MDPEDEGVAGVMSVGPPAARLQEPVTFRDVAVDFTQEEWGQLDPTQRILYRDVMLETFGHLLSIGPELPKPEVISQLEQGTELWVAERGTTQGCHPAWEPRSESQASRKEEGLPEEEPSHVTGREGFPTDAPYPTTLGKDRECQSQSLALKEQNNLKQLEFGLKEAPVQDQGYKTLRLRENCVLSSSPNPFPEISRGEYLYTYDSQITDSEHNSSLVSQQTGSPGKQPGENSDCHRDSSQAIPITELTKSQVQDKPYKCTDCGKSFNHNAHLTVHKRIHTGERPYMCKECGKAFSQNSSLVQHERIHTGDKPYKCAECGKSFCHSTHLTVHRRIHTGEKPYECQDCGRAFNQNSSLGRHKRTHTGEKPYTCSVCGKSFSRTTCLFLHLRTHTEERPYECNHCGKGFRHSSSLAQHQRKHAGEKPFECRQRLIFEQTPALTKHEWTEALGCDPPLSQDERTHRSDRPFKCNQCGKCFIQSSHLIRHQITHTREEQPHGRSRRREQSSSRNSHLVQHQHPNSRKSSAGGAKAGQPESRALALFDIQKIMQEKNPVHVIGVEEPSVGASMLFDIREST
UniProt P25440, whole entry, looked up: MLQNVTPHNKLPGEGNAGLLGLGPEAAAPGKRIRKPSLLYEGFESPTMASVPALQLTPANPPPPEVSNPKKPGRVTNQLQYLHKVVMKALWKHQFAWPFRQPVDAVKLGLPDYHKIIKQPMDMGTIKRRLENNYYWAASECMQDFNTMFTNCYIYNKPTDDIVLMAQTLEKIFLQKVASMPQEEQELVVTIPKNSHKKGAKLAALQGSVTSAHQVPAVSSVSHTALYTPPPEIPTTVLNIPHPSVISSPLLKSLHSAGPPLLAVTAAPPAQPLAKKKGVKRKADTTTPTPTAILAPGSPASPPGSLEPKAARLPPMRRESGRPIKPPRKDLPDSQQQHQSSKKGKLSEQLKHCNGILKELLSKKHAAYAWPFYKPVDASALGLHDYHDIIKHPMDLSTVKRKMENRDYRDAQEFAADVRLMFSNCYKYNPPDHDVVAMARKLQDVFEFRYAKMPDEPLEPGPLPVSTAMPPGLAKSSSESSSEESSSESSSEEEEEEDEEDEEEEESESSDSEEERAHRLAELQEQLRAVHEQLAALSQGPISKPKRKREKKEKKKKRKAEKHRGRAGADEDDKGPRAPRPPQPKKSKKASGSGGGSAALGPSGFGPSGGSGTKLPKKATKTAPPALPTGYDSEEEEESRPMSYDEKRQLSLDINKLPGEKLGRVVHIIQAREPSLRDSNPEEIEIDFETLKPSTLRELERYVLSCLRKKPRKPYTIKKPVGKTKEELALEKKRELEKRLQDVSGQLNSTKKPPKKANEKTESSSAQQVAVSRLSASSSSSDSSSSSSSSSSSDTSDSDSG
UniProt P16949: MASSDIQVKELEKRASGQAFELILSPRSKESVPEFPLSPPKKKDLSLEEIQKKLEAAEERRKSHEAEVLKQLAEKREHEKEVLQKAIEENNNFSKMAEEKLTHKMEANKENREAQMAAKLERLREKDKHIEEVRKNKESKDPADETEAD
UniProt P24844: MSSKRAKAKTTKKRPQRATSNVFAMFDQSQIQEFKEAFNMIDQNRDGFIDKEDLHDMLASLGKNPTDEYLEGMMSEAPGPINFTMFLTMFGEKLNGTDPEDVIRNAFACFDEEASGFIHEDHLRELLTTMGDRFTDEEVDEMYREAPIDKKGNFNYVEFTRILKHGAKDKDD
UniProt P19174: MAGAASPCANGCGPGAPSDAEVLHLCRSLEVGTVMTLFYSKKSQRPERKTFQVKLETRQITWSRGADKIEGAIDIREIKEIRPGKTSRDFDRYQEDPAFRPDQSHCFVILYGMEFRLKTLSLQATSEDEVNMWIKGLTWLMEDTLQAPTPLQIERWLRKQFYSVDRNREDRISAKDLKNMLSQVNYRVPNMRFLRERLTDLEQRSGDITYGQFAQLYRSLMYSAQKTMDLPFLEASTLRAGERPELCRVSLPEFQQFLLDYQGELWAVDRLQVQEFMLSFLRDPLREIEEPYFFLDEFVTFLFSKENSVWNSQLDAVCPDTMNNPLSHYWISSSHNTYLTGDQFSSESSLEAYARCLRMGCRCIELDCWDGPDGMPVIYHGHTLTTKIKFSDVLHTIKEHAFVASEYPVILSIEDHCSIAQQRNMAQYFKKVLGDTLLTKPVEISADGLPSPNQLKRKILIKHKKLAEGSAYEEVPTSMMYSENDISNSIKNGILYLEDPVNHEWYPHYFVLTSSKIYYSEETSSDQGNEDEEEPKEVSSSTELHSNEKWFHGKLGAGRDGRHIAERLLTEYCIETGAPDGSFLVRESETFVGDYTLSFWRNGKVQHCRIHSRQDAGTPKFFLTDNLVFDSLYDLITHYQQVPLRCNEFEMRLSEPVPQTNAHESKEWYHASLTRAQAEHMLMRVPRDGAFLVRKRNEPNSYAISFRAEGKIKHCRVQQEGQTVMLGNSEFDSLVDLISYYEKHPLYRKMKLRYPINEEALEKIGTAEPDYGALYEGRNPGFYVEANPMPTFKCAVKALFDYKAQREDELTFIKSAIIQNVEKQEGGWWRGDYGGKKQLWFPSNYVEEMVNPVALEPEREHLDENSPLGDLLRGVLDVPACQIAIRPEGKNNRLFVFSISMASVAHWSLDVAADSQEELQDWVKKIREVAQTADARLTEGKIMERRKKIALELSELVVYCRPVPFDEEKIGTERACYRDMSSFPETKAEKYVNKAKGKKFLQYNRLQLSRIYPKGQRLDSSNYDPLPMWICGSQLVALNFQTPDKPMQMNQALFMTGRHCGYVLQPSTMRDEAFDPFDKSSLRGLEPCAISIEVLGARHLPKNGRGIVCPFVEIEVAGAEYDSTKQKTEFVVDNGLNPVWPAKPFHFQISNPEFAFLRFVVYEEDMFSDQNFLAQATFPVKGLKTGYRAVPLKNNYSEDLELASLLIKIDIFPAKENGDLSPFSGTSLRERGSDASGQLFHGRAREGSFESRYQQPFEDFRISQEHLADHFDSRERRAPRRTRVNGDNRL
UniProt P14859: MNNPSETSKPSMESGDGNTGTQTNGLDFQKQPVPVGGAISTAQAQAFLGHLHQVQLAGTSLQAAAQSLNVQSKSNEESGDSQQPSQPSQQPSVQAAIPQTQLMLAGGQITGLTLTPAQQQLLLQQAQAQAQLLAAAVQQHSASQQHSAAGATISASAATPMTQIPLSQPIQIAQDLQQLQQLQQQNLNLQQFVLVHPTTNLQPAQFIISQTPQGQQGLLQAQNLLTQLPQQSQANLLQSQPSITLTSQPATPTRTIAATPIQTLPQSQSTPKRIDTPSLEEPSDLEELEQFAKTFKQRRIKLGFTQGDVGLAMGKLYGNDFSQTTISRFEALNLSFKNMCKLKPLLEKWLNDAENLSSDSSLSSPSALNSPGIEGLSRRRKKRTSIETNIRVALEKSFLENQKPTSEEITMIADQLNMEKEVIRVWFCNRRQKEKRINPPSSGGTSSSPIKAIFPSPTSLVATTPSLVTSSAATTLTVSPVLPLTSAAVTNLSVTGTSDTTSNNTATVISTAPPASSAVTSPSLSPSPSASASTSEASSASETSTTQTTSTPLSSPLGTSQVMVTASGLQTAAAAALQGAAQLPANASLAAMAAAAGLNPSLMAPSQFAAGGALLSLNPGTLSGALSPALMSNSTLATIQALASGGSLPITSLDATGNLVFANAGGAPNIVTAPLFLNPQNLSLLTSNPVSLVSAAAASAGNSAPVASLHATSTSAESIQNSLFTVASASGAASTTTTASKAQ

Some of the results follow. Most values lie at the level of the controls, where differences are scatter.

Compound in the experiment: Cc1nc(Nc2ncc(C(=O)Nc3c(C)cccc3Cl)s2)cc(N2CCN(CCO)CC2)n1 [dasatinib]
Kind of experiment: log2 fold change of tryptic peptide abundance, ligand vs vehicle (limited proteolysis) (log2 ratio); higher = more trypsin-susceptible (destabilized). To be noted: ligand concentration: 5 uM; sample: K562 cleared lysate.
Take “PSMB5 (peptide sequence: FRHGVIVAADSR, peptide start residue: 67) (UniProt P28074)”: the log2 fold change came to 0.782.
Consider “ZNF8 (peptide sequence: EAPVQDQGYK, peptide start residue: 165) (UniProt P17098)”, for which the log2 fold change is 0.225.
As for “BRD2 (peptide sequence: VVHIIQAR, peptide start residue: 665) (UniProt P25440)”, the log2 fold change was -0.273.
The figure for “STMN1 (peptide sequence: ESVPEFPLSPPKKK, peptide start residue: 30) (UniProt P16949)” is -0.225; for “UniProt P24844 (peptide sequence: EAFNMIDQNR, peptide start residue: 36)” it is 0.0553; for “UniProt P17612 (peptide sequence: CGKEFSEF, peptide start residue: 344)” it is 0.145.
On to “PLCG1 (peptide sequence: SLMYSAQK, peptide start residue: 219) (UniProt P19174)”, for which the log2 fold change came out at 0.165.
Regarding “POU2F1 (peptide sequence: TSIETNIR, peptide start residue: 384) (UniProt P14859)”, the log2 fold change was 0.0457.
